Binding data for two substances are collected here from paper PMC4813464.

Amino acid sequences for entries named in this document (tags omitted). Residues count along the entry.
UniProt P04258: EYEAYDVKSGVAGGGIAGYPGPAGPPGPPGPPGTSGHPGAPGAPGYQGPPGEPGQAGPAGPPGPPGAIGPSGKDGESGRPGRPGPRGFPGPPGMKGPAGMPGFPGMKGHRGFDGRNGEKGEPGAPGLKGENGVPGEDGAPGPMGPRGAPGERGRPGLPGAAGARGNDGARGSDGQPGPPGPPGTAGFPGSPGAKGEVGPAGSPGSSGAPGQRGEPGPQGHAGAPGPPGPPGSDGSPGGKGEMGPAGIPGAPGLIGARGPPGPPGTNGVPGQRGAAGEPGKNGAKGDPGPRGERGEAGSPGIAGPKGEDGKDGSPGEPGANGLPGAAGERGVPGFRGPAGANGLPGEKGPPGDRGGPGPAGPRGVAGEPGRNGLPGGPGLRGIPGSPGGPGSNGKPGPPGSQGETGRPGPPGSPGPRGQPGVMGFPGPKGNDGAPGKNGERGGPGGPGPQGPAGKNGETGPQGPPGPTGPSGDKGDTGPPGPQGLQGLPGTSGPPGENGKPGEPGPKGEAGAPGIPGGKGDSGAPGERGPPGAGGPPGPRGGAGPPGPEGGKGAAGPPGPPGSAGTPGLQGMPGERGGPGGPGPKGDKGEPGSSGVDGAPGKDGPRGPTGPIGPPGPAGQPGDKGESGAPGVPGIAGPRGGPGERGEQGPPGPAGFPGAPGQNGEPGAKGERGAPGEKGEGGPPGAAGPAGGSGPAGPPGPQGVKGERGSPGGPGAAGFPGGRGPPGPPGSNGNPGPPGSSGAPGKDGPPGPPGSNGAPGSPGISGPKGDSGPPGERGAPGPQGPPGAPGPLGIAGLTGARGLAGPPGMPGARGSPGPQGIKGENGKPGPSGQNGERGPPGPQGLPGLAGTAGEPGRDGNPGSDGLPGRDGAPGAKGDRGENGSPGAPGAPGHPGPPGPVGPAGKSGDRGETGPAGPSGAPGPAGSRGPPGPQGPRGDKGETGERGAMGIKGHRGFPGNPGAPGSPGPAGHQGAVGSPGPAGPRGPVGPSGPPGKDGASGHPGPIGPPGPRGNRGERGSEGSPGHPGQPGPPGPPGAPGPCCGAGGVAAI
UniProt Q08345, residues 21-417: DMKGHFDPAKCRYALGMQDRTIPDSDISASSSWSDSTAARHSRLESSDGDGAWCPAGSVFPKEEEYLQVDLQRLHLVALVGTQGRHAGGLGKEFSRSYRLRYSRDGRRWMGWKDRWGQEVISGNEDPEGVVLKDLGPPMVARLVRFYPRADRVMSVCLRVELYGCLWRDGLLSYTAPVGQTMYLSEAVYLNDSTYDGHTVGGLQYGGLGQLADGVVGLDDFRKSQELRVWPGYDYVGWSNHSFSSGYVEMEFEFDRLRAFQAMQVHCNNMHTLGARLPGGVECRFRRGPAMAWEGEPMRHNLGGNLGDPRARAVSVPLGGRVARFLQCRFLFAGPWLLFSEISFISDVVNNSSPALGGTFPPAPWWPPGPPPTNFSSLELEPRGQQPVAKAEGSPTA
UniProt P04275, residues 764-2813: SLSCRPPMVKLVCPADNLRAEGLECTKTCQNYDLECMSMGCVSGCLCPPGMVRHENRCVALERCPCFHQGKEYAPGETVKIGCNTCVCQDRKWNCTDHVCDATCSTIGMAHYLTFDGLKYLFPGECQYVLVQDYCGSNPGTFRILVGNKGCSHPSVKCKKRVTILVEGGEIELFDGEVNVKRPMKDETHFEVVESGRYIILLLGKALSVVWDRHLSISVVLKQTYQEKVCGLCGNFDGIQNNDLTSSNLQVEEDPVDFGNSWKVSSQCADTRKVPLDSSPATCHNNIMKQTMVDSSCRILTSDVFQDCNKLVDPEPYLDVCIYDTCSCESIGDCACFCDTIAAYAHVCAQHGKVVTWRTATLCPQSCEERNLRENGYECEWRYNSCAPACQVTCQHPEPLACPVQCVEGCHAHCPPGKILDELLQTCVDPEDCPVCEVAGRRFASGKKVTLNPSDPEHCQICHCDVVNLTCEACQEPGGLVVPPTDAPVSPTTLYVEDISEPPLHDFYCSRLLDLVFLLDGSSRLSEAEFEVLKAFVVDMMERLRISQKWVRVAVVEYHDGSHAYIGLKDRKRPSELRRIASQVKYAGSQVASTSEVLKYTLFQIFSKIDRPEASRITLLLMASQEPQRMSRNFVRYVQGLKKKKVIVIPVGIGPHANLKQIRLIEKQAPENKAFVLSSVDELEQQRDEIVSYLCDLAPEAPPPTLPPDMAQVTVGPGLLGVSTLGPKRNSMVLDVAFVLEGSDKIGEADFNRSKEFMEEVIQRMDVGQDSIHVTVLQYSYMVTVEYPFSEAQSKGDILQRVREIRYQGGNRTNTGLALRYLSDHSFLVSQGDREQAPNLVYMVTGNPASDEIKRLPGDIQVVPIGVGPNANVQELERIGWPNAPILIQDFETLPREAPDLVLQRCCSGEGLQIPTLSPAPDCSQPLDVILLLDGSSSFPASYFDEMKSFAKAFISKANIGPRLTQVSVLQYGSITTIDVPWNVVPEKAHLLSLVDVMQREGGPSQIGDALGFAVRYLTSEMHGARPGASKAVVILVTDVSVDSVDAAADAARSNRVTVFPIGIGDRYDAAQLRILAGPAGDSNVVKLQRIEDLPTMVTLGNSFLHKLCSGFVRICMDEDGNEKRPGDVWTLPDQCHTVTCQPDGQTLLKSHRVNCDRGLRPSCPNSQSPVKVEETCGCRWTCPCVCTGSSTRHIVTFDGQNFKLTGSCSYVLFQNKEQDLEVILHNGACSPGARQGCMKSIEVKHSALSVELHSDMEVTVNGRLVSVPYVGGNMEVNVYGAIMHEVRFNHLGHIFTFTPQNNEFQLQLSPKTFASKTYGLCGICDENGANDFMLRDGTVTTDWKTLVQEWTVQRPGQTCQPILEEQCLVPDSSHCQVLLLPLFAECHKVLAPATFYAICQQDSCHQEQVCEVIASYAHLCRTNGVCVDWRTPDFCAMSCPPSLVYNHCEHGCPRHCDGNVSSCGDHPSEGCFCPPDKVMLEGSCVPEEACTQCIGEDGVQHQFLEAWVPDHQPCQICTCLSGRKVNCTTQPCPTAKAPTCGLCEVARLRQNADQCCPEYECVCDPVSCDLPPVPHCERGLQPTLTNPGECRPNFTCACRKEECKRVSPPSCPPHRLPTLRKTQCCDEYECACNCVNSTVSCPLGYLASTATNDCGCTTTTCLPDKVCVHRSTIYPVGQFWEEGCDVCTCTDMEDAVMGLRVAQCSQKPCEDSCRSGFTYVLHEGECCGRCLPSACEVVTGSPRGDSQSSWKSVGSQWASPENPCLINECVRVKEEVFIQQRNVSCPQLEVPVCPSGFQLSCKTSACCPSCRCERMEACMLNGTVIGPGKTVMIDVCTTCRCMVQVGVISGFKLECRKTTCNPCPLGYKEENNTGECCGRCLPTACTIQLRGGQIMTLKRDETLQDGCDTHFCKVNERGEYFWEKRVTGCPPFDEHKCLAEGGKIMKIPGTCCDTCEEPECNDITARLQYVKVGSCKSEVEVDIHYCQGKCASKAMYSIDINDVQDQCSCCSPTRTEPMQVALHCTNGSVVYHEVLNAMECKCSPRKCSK

Assay [1] deals with Triple-helical peptide GPC(GPP)5-GPRGQOGVMGFO-(GPP)5GPC-NH2 (human). The assay can be described thus: ELISA; solid-phase binding assay: triple-helical peptides coated at 10 μg/ml on 96-well plates; DDR1-Fc or DDR2-Fc added for 3 h; anti-human Fc-HRP detection, A492; one-site fit; both purified. Background: ELISA stands for enzyme-linked immunosorbent assay.
Assay [2] has as its target Triple-helical peptide GPC(GPP)5-GPRGQOGVMGFP-(GPP)5GPC-NH2 (human). Described as above.
The target in assay [3] is Triple-helical peptide GPC(GPP)5-…O-(GPP)5GPC-NH2 (human). Described as above.
In assay [4] the target is Collagen type III, pepsin-extracted from bovine skin (bovine) (UniProt P04258). The assay can be described thus: ELISA; competitive solid-phase binding assay: bovine collagen type III coated at 10 μg/ml; DDR-Fc at 3 μg/ml (43 nM) pre-incubated 1 h at room temperature with collagen samples at 0, 0.3, 1.3, 5 and 10 μM, then 3 h on the plate; anti-Fc detection, A450; both purified.

The target is the same in assay [5]. The assay can be described thus: condition: only collagen type III denatured (90 °C, 30 min) before coating; ELISA; as a3, but the collagen samples were denatured (90 °C water bath, 30 min) before coating; both purified.

These are yes or no findings as the source states them, for the method shown. Some entries that bind do so weakly or less than the wild type.

With “DDR1-Fc (recombinant human discoidin domain receptor 1 ectodomain, Fc-tagged) (from UniProt Q08345 21-417) (Fc fusion)”, the binding entry in assay [1], in assay [2], in assay [3] and in assay [4] was “binds” throughout.

“von Willebrand factor (human, in Hemate P) (from UniProt P04275 764-2813)”: in assay [5], the binding result is listed as “no binding”.
